Earlier results in US20110098223A1, “USE OF THE PAT NANOPEPTIDE IN THE TREATMENT OF AUTOIMMUNE DISEASES” (priority 2008, published 2011).
Part of at least one peptide drawing is inferred or uncertain, most often the ends. Where no end group is shown, it is not given here.

Tested on: rats
Details: endotoxin intraplantar and intraperitoneal injections, Br J. Pharmacol. 2002; cited from earlier work

Substance: EAKSQGGSD-NH2 [PAT nonapeptide, EAKSQGGSD]
- analgesic and anti-inflammatory effects: confers analgesic and anti-inflammatory effects
